Measured values taken from US6372467B1, “P54s6k and p85s6k genes, proteins, primers, probes, and detection methods” (President and Fellows of Harvard College, priority 1998, dated 2002).
For at least one compound, name, drawing or mass did not settle the structure.

System: p54^S6K
Test: In vitro kinase assay (GST-S6 substrate) of anti-HA immunoprecipitates from serum-stimulated 293 cells transfected with HA-p54^S6K
Format: cell-based, human
Conditions: rapamycin 20 ng/ml or wortmannin 100 nM for 20 minutes prior to serum stimulation (10%, 20 minutes)

Compound	Increase in p54^S6K kinase activity by serum
CO[C@H]1C[C@@H]2CC[C@@H](C)[C@@](O)(O2)C(=O)C(=O)N2CCCC[C@H]2C(=O)O[C@H]([C@H](C)C[C@@H]2CC[C@@H](O)[C@H](OC)C2)CC(=O)[C@H](C)/C=C(\C)[C@@H](O)[C@@H](OC)C(=O)[C@H](C)C[C@H](C)/C=C/C=C/C=C/1C [rapamycin]	inhibited
COC[C@H]1OC(=O)c2coc3c2[C@@]1(C)C1=C(C3=O)[C@@H]2CCC(=O)[C@@]2(C)C[C@H]1OC(C)=O [wortmannin]	inhibited
